Here are results for 1 compound from paper PMC12282580 (RSC Advances, 2025).

The subject of the assay is SW620 cells (colon cancer). Briefly: Cytotoxicity assay. Format: cell-based. As to conditions: Homo sapiens, SW-620, 48 h, read-out: Cytotoxicity (IC50) SW620.

One may read the IC50 as the midpoint of a concentration-inhibition curve. As for `O=C(CCCCCCC(=O)Nc1ccccc1)NO` [SAHA, suberoylanilide hydroxamic acid, reference compound], the IC50 amounted to 2080 ± 350 nM.
